A short description of this data set: general procedure: solution-phase peptide synthesis; EDC/HOBt; HATU/diisopropylethylamine. Particulars: late stage modification step.

As to “rel-(8S,11S,14S)-14-Amino-11-(3-aminopropyl)-5,17-dihydroxy-N-[2-hydroxy-3-(L-ornithylamino)propyl]-10,13-dioxo-9,12-diazatricyclo[14.3.1.1^2,6]henicosa-1(20),2(21),3,5,16,18-hexaene-8-carboxamide tetrahydrotrifluoroacetate”, the step yield (of theory, tetra(hydrotrifluoroacetate)) is 22% of theory. As to “(8S,11S,14S)-14-Amino-N-{1-(2-aminoethyl)-3-[(2-aminoethyl)amino]-3-oxopropyl}-11-(3-aminopropyl)-5,17-dihydroxy-10,13-dioxo-9,12-diazatricyclo[14.3.1.1^2,6]henicosa-1(20),2(21),3,5,16,18-hexaene-8-carboxamide tetrahydrochloride”, where the note is “of theory”, the step yield was 58% of theory.

Take “(8S,11S,14S)-14-Amino-N-((1S,3R)-4-amino-1-{[(2-aminoethyl)amino]carbonyl}-3-hydroxybutyl)-11-[3-aminopropyl]-5,17-dihydroxy-10,13-dioxo-9,12-diazatricyclo[14.3.1.1^2,6]henicosa-1(20),2(21),3,5,16,18-hexaene-8-carboxamide tetrahydrochloride”: the step yield is on record as 59%. Regarding “N^2-{[(8S,11S,14S)-14-[(tert-Butoxycarbonyl)amino]-11-{3-[(tert-butoxycarbonyl)amino]propyl}-5,17-dihydroxy-10,13-dioxo-9,12-diazatricyclo[14.3.1.1^2,6]henicosa-1(20),2(21),3,5,16,18-hexaen-8-yl]carbonyl}-L-ornithyl-N-(2-aminoethyl)-L-ornithinamide tris(hydroacetate)”, the step yield (tris(hydroacetate)) is listed as 41% of theory.

Values taken from patent US7446102B2 (priority 2004, dated 2008).
